Literature values as cited in patent publication US20130216482A1, “METHODS AND COMPOSITIONS FOR NON-INVASIVE, DYNAMIC IMAGING OF INTESTINAL MOTILITY” (The Board of Regents of the University of Texas System, priority 2012, published 2013).

Details: systemic (i.v.) administration; then taken up by the liver and secreted into the bile; cited from earlier work

In the case of `CC1(C)C(/C=C/C=C/C=C/C=C2\N(CCCCS(=O)(=O)O)c3ccc4ccccc4c3C2(C)C)=[N+](CCCCS(=O)(=O)[O-])c2ccc3ccccc3c21` [ICG, indocyanine green], the normal biological half-life is listed as 2-4 min.
